Structures are written as SMILES. The list does not hold the whole screen: it gathers tests that were run many times, whatever their T/C, doses with no T/C, and many T/C values between a quarter and a half above the control. Other doses and runs of a compound stand elsewhere. T/C: endpoint of the treated group in % of that of the vehicle group. Some doses have a count of surviving animals in place of a T/C: the source holds a T/C of zero for them, seemingly a mark for toxic or unscored doses. Some doses without a T/C left all or most animals alive at the check, yet need not have been tolerated: survival well below the control is almost never listed, so the zero probably covers shortened survival too. Counts of survivors are from the toxicity check (mostly the fifth day) where no day follows; animals may have died later. Schedules are NCI's codes, taken here to give the interval after Q, in days (D) or hours (H), and the number of doses after X. For survival time, the PubChem record calls one and a half times the control and up active, and a quarter to a half above the control has no call in these data; cut-offs in other NCI protocols can differ. Some T/C values are followed by the survivors on the day toxicity was checked, most often the fifth; without a count, all were alive then.

This test relates to BDF1 mice, P388 leukemia ip, median survival T/C. Description: NCI In Vivo Anticancer Drug Screen. Data for tumor model P388 Leukemia (intraperitoneal) in B6D2F1 (BDF1) mice. The conditions noted are these: T/C endpoint: median survival time, higher T/C = longer survival. In a few lines: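 Vehicle-dosed animals serve as the reference; survival of compound-dosed, tumour-implanted mice is divided by it.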

The mark [1] stands for this setting: dose: 200.0 mg/kg/injection, schedule: Q04DX003 (ip), vehicle: saline with Tween-80.
Setting [2] is: dose: 400.0 mg/kg/injection, schedule: Q04DX003 (ip), vehicle: saline with Tween-80.

As to `COc1cc2c(cc1OC)C(OC)N(C)c1c-2ccc2cc(OC)c(OC)cc12` (stereo unspecified), the T/C was 134 % of control (dose: 50.0 mg/kg/injection, schedule: Q04DX003 (ip), vehicle: water); 148 % of control [5 of 6 alive] (dose: 100.0 mg/kg/injection, schedule: Q04DX003 (ip), vehicle: water); 142 % of control [5 of 6 alive] (dose: 200.0 mg/kg/injection, schedule: Q04DX003 (ip), vehicle: water).

Regarding `OCC1OC(OC2(CO)OC(CO)C(O)C2O)C(O)C(O)C1O` (stereo unspecified), the T/C (dose: 11.0 mg/kg/injection, schedule: Q01DX009 (ip), vehicle: saline) is 135 % of control.

For `Cn1c(=O)c2c(ncn2C)n(C)c1=O`, under “dose: 400.0 mg/kg/injection, schedule: Q01DX010 (ip), vehicle: saline”, the survivor count was 0 of 6.

As for `COc1cccc2c1C(=O)CC2`, the survivor count (dose: 300.0 mg/kg/injection, schedule: Q04DX003 (ip), vehicle: Klucel (hydroxypropylcellulose) (HPC)) is given as 3 of 6.

Turning to `CC1(C)C2CCC1(C)C1OC(=O)NN=C21` (stereo unspecified), the survivor count reads like this: (dose: 100.0 mg/kg/injection, schedule: Q01DX001 (ip), vehicle: saline with Tween-80) 1 of 6; (dose: 200.0 mg/kg/injection, schedule: Q01DX001 (ip), vehicle: saline with Tween-80) 0 of 6; (dose: 400.0 mg/kg/injection, schedule: Q01DX001 (ip), vehicle: saline with Tween-80) 0 of 6.

Regarding `O=C(c1ccccc1)C1CCCCC1`, under “dose: 100.0 mg/kg/injection, schedule: Q04DX003 (ip), vehicle: saline”, the T/C was 126 % of control.

Regarding `CCCCCCCC[N+](CC)(CC)CCOC(=O)C(C1CCCC1)C1CCCC1`, the survivor count is listed as 3 of 6 (dose: 5.6 mg/kg/injection, schedule: Q01DX009 (ip), vehicle: saline); 5 of 6 (dose: 8.1 mg/kg/injection, schedule: Q04DX003 (ip), vehicle: saline); 1 of 6 (dose: 8.4 mg/kg/injection, schedule: Q01DX009 (ip), vehicle: saline); 2 of 6 (dose: 12.0 mg/kg/injection, schedule: Q04DX003 (ip), vehicle: saline).

With `C=C1C(=O)OC2CC(C)C3C4OC4C(O)C3(C)C(O)C12` (stereo unspecified), the T/C (dose: 37.5 mg/kg/injection, schedule: Q01DX009 (ip), vehicle: saline) is 134 % of control.

As to `C=CC=O`, the survivor count (dose: 3.13 mg/kg/injection, schedule: Q01DX009 (ip), vehicle: saline) is 3 of 6; the survivor count (dose: 12.5 mg/kg/injection, schedule: Q01DX009 (ip), vehicle: saline) is 0 of 6; the survivor count (dose: 25.0 mg/kg/injection, schedule: Q04DX003 (ip), vehicle: saline) is on record as 6 of 6.

Take `O=C1NC(C2CCC3CN32)C(=O)NC1C1CCC2CN21` (stereo unspecified): the T/C reads like this: (dose: 0.1 mg/kg/injection, schedule: Q01DX009 (ip), vehicle: saline) 128 % of control; (dose: 0.2 mg/kg/injection, schedule: Q01DX009 (ip), vehicle: saline) 138 % of control; (dose: 1.6 mg/kg/injection, schedule: Q01DX009 (ip), vehicle: saline) 146 % of control.

Regarding `CC[C@H]1CN2CCc3cc(OC)c(OC)cc3[C@@H]2C[C@@H]1C[C@H]1NCCc2c1[nH]c1ccc(O)cc21`, the T/C (dose: 1.0 mg/kg/injection, schedule: Q04DX003 (ip), vehicle: saline + alcohol) was 145 % of control. Besides, the survivor count (dose: 8.0 mg/kg/injection, schedule: Q04DX003 (ip), vehicle: saline + alcohol) is given as 5 of 8 and the survivor count (dose: 16.0 mg/kg/injection, schedule: Q04DX003 (ip), vehicle: saline + alcohol) is on record as 0 of 8.

Turning to `CC1=C2C(=O)c3ccccc3C2=C(C)S(=O)(=O)O1`, the survivor count was 0 of 6 (dose: 100.0 mg/kg/injection, schedule: Q04DX003 (ip), vehicle: saline with Tween-80); 3 of 6 (dose: 200.0 mg/kg/injection, schedule: Q01DX009 (ip), vehicle: carboxymethylcellulose (CMC)); 0 of 6 under setting [1]; 0 of 6 under setting [2]; 0 of 6 (dose: 600.0 mg/kg/injection, schedule: Q04DX003 (ip), vehicle: saline with Tween-80). In addition, the T/C reads like this: under setting [1], 133 % of control; under setting [2], 127 % of control.

Take `O=Cc1ccc([N+](=O)[O-])s1`: the T/C was 125 % of control (dose: 12.5 mg/kg/injection, schedule: Q01DX009 (ip), vehicle: saline with Tween-80) and 127 % of control [5 of 6 alive] (dose: 25.0 mg/kg/injection, schedule: Q01DX009 (ip), vehicle: saline with Tween-80). Besides, the survivor count (dose: 50.0 mg/kg/injection, schedule: Q01DX009 (ip), vehicle: saline with Tween-80) was 0 of 6 and the survivor count (dose: 100.0 mg/kg/injection, schedule: Q01DX009 (ip), vehicle: saline with Tween-80) is on record as 0 of 6.

On to `C[N+](C)(Cn1nc(Cl)c2cc([N+](=O)[O-])ccc21)Cn1nc(Cl)c2cc([N+](=O)[O-])ccc21`, for which the survivor count under setting [2] was 0 of 6.

As to `COc1cc(/C=C/c2ccc3ccccc3n2)cc(OC)c1OC`, the survivor count is 6 of 6 under setting [1] and 6 of 6 under setting [2].

For the compound `OCCNCCNCC[OH2+].OCCNCCNCC[OH2+].[Cu+2].[O-][Cl+3]([O-])([O-])[O-]`, the survivor count is on record as 0 of 6 (dose: 50.0 mg/kg/injection, schedule: Q01DX009 (ip), vehicle: other); 1 of 6 (dose: 100.0 mg/kg/injection, schedule: Q01DX009 (ip), vehicle: other); 0 of 6 (dose: 200.0 mg/kg/injection, schedule: Q01DX009 (ip), vehicle: other).

For `CNC(=S)N(N)c1ccccc1`, the survivor count runs as follows: (dose: 300.0 mg/kg/injection, schedule: Q01DX009 (ip), vehicle: Klucel (hydroxypropylcellulose) (HPC)) 4 of 6; (dose: 400.0 mg/kg/injection, schedule: Q04DX003 (ip), vehicle: Klucel (hydroxypropylcellulose) (HPC)) 4 of 6.

Consider `CCSc1nc(Cl)cc(Sc2nc(N)nc3nc[nH]c23)n1`, for which the T/C runs as follows: (dose: 26.0 mg/kg/injection, schedule: Q01DX009 (ip), vehicle: Klucel (hydroxypropylcellulose) (HPC)) 135 % of control; (dose: 40.0 mg/kg/injection, schedule: Q01DX009 (ip), vehicle: Klucel (hydroxypropylcellulose) (HPC)) 130 % of control; (dose: 60.0 mg/kg/injection, schedule: Q01DX009 (ip), vehicle: Klucel (hydroxypropylcellulose) (HPC)) 130 % of control; (dose: 88.0 mg/kg/injection, schedule: Q01DX009 (ip), vehicle: Klucel (hydroxypropylcellulose) (HPC)) 145 % of control; (dose: 88.0 mg/kg/injection, schedule: Q01DX010 (ip), vehicle: saline) 125 % of control; (dose: 132.0 mg/kg/injection, schedule: Q01DX009 (ip), vehicle: Klucel (hydroxypropylcellulose) (HPC)) 140 % of control. For the same compound, under “dose: 300.0 mg/kg/injection, schedule: Q01DX010 (ip), vehicle: saline”, the survivor count is reported as 6 of 6.

Turning to `Nc1cc2c(c(Cl)c1Br)-c1ccccc1C2=O`, the survivor count (dose: 50.0 mg/kg/injection, schedule: Q01DX009 (ip), vehicle: Klucel (hydroxypropylcellulose) (HPC)) is recorded as 6 of 6; the survivor count (dose: 100.0 mg/kg/injection, schedule: Q01DX009 (ip), vehicle: Klucel (hydroxypropylcellulose) (HPC)) is 5 of 6; the survivor count (dose: 200.0 mg/kg/injection, schedule: Q01DX009 (ip), vehicle: Klucel (hydroxypropylcellulose) (HPC)) is 5 of 6; the survivor count (dose: 400.0 mg/kg/injection, schedule: Q01DX009 (ip), vehicle: Klucel (hydroxypropylcellulose) (HPC)) was 0 of 6.

In the case of `CC(O)(c1ccc(Br)cc1)C(c1ccccc1)c1ccccn1` (stereo unspecified), under “dose: 50.0 mg/kg/injection, schedule: Q04DX003 (ip), vehicle: saline”, the survivor count was 6 of 6.

As for `CCN1CC1`, the survivor count (dose: 25.0 mg/kg/injection, schedule: Q01DX009 (ip), vehicle: Klucel (hydroxypropylcellulose) (HPC)) was 0 of 6.
